The results in this text go back to PMC3493487.

The exact form of at least one protein or probe is not confirmed.

The target of this series is I27-I27-p53NTR+DBD(1-293)-I27-I27 (Homo sapiens) (UniProt P04637). In words: AFM single-molecule force spectroscopy (mechanical unfolding pattern changed by DNA). The conditions noted are these: 10 mM MgCl2, dsDNA:p53 molar ratio 1:2, 10:1 or 20:1; PBS (140 mM NaCl, 10 mM phosphate, 3 mM KCl, pH 7.4), 10 mM MgCl2, 10 mM DTT, room temperature (incubation on mica); 0.2-0.4 uM protein; recombinant protein; residues 1-293.

As to “CCTAGACATGCCTAAT (double strand) [16-mer p53 consensus half-site dsDNA]”, the binding result is “binds”.
